Data on 3 molecules can be found in PMC2845649.

Chains of the proteins cited; added tags and fusions are not shown. Lines headed by an entry give the natural chain unless they say otherwise; changes in a name come on top.
UniProt P31749: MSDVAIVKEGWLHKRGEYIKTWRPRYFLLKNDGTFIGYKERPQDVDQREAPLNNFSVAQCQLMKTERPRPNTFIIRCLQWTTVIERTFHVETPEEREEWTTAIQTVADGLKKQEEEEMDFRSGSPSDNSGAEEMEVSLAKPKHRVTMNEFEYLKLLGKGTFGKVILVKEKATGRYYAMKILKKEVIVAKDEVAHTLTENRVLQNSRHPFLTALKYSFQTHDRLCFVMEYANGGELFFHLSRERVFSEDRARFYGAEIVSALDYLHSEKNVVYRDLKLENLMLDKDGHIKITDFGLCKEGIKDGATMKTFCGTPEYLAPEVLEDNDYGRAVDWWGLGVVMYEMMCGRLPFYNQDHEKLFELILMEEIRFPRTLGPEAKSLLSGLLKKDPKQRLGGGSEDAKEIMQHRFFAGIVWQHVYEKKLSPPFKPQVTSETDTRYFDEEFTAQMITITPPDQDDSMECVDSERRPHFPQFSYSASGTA

Test [1] concerns the target IFPN-AKT1, P31749. As to the kind of experiment: co-IP; HeLa cells stably expressing PDK1-IFPC and IFPN-AKT1, lysed in NP40 buffer (Tris-HCl pH 8.0 50 mM, NaCl 150 mM, NP-40 1%); IP with anti-AKT1 or normal IgG, blots with anti-PDK1 and anti-AKT. The note with it: remark: other sources report otherwise.
The target in test [2] is IFPN-AKT1, P31749. Put plainly: split reporter; protein-fragment complementation of IFP (Venus) fragments IFPN and IFPC, fluorescence in living HeLa cells, stably or transiently transfected; serum starved, 10% serum 10 min, or LY294002 20 µM 3 h. The note with it: remark: other sources report otherwise.
The next test concerns the target IFPN-AKT1(R25A) (UniProt P31749). Described as above.
The target in the next test is IFPN-AKT1 (UniProt P31749). Described as above.

Substitutions are numbered along the chain they refer to. Numbers in names are those of the source. These are yes or no findings as the source states them, for the method shown. In cells and extracts the contact can be indirect. Some results given as binding are weak or reduced against the parent protein; the word gives no strength.

B1: PDK1-IFPC, O15530 1-556 (protein)
chain: MARTTSQLYDAVPIQSSVVLCSCPSPSMVRTQTESSTPPGIPGGSRQGPAMDGTAAEPRPGAGSLQHAQPPPQPRKKRPEDFKFGKILGEGSFSTVVLARELATSREYAIKILEKRHIIKENKVPYVTRERDVMSRLDHPFFVKLYFTFQDDEKLYFGLSYAKNGELLKYIRKIGSFDETCTRFYTAEIVSALEYLHGKGIIHRDLKPENILLNEDMHIQITDFGTAKVLSPESKQARANSFVGTAQYVSPELLTEKSACKSSDLWALGCIIYQLVAGLPPFRAGNEYLIFQKIIKLEYDFPEKFFPKARDLVEKLLVLDATKRLGCEEMEGYGPLKAHPFFESVTWENLHQQTPPKLTAYLPAMSEDDEDCYGNYDNLLSQFGCMQVSSSSSSHSLSASDTGLPQRSGSNIEQYIHDLDSNSFELDLQFSEDEKRLLLEKQAGGNPWHQFVENNLILKMGPVDKRKGLFARRRQLLLTEGPHLYYVDPVNKVLKGEIPWSQELRPEAKNFKTFFVHTPNRTYYLMDPSGNAHKWCRKIQEVWRQRYQSHPDAAVQ
Take B1: the binding result with IFPN-AKT1, P31749 [1] is listed as “binds”; in the test with IFPN-AKT1, P31749 [2] it was “binds”.

B2: PDK1-IFPC (protein, UniProt O15530 1-556)
chain: B1 chain
With B2, in the test with IFPN-AKT1(R25A), the binding entry is recorded as “binds”.

B3: PDK1(R474A)-IFPC (protein, UniProt O15530 1-556)
chain: B1 chain with R474A
As to B3, the binding result in the test with IFPN-AKT1(R25A) and with IFPN-AKT1 was “binds” throughout.
